Experimental findings from the supplement of paper PMC6411743 are described below.

Chains of the proteins cited; added tags and fusions are not shown. Lines headed by an entry give the natural chain unless they say otherwise; changes in a name come on top.
UniProt P49790, whole entry: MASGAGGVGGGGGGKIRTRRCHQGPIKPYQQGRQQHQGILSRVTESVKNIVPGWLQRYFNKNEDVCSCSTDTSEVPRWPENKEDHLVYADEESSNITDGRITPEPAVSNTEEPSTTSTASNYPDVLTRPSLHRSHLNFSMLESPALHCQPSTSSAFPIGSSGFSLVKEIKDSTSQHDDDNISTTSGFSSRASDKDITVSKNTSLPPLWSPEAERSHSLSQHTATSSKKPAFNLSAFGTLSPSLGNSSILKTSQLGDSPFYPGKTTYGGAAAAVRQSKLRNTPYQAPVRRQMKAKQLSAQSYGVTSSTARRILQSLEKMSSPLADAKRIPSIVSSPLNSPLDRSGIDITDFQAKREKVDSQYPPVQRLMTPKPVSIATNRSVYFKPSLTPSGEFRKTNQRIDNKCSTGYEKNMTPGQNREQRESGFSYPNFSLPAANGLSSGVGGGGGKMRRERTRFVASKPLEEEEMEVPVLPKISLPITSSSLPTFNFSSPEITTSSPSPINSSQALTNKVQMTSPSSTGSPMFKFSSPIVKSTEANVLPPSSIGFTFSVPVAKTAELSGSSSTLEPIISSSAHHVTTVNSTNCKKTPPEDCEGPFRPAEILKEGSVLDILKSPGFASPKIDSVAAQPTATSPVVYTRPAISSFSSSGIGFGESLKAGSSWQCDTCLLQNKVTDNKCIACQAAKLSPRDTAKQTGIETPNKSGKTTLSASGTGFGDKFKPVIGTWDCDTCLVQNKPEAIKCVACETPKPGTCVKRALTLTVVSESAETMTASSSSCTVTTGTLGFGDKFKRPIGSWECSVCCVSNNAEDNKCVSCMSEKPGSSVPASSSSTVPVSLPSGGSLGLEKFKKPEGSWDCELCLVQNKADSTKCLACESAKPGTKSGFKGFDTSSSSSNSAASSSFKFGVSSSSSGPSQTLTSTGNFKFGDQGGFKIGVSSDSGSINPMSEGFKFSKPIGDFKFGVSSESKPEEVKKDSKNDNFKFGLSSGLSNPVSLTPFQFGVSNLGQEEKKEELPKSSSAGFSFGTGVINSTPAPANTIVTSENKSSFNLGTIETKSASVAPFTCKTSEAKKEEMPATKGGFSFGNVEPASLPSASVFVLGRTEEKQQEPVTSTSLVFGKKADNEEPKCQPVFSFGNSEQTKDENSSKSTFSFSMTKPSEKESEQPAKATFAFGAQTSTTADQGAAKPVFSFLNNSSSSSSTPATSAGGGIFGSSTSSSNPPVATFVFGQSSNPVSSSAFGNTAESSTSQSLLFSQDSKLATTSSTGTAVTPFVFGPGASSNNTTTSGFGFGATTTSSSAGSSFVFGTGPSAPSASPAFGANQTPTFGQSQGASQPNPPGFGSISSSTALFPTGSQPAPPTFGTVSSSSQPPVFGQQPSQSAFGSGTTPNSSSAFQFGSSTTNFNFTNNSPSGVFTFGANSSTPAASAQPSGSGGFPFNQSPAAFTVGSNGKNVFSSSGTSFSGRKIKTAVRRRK
UniProt P43686, whole entry: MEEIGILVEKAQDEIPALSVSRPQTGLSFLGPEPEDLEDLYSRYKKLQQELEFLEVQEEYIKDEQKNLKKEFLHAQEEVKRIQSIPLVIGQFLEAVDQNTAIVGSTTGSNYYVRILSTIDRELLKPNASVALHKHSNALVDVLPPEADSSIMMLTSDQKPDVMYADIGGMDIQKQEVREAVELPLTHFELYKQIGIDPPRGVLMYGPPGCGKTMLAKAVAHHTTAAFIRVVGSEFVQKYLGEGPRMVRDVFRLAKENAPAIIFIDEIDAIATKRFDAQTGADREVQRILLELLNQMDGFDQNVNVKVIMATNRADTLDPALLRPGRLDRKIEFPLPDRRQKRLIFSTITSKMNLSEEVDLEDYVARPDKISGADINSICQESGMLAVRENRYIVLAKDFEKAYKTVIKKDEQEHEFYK
UniProt P30153, whole entry: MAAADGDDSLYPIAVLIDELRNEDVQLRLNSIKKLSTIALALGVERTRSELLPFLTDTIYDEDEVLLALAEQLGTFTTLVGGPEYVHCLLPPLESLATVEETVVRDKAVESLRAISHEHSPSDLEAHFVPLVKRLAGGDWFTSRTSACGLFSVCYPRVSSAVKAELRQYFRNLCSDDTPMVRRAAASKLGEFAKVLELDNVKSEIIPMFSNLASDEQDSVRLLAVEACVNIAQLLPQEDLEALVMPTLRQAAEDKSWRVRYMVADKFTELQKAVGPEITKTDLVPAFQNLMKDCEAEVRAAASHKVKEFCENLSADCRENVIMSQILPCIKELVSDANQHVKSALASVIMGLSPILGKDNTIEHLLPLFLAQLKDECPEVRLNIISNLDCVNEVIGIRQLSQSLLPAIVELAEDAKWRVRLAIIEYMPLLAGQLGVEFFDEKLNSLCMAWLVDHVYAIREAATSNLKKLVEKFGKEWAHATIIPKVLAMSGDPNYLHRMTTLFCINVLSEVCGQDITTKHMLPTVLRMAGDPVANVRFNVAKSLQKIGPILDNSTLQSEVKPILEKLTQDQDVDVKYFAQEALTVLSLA
UniProt P38935: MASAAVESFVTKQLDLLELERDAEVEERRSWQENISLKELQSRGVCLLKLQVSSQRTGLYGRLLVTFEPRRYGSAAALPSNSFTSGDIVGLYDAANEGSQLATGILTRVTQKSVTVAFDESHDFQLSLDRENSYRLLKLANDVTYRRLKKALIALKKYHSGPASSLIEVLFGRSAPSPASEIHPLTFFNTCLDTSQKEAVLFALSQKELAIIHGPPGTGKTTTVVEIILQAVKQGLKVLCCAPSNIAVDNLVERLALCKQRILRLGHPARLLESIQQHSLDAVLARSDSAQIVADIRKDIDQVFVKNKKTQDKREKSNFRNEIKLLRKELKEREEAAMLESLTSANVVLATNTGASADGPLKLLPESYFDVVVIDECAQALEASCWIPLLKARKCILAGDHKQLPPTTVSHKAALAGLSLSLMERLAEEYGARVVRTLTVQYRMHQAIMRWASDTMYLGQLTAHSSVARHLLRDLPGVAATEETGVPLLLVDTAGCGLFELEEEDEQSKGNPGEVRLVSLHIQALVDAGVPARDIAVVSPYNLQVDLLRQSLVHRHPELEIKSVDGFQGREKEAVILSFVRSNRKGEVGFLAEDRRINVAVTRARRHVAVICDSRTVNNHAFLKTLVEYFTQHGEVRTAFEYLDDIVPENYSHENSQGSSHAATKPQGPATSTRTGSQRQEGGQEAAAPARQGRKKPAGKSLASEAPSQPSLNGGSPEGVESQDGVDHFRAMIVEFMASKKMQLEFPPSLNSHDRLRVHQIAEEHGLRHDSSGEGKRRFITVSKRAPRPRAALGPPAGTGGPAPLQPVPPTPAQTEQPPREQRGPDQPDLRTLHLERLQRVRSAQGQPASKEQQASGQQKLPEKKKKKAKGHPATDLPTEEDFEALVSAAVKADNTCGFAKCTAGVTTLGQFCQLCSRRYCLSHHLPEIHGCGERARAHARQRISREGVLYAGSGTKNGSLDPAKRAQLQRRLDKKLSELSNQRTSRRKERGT
UniProt P49721: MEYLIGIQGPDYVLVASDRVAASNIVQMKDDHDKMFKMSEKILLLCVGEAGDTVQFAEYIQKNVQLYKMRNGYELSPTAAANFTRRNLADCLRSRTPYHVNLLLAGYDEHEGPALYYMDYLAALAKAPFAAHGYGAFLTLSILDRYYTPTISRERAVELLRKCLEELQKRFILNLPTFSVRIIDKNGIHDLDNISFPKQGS
UniProt P46459: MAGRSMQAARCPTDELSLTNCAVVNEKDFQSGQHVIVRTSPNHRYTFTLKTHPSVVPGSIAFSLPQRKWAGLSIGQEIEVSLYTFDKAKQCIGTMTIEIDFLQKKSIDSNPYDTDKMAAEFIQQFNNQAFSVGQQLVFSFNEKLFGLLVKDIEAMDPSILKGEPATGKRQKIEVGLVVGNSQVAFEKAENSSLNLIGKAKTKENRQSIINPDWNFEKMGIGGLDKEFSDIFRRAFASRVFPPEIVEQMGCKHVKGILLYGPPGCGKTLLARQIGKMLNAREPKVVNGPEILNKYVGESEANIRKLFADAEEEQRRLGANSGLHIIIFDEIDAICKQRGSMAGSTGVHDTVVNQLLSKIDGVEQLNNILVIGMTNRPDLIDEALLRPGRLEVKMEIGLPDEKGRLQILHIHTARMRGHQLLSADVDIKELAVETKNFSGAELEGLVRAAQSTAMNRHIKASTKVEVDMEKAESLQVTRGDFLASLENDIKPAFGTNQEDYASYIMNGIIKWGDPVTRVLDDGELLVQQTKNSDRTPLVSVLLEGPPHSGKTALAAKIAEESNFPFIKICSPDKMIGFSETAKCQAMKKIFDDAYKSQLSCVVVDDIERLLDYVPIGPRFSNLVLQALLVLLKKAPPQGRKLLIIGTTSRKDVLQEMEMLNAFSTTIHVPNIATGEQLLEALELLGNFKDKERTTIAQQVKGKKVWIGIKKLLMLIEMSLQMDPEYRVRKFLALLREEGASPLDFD
UniProt P43487, whole entry: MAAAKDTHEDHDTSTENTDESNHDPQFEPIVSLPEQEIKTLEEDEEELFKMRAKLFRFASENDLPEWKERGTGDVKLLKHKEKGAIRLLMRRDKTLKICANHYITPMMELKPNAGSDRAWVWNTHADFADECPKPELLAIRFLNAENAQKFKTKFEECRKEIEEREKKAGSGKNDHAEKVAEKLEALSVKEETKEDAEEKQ
UniProt P30086: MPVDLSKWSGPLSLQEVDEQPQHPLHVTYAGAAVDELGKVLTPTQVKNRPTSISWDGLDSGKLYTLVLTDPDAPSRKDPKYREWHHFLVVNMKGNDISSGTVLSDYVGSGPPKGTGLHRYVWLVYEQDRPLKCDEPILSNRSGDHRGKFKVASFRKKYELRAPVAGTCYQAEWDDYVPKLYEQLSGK
UniProt P49458: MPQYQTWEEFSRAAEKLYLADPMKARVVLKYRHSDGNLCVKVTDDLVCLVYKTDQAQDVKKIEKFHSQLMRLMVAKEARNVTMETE
UniProt P28702: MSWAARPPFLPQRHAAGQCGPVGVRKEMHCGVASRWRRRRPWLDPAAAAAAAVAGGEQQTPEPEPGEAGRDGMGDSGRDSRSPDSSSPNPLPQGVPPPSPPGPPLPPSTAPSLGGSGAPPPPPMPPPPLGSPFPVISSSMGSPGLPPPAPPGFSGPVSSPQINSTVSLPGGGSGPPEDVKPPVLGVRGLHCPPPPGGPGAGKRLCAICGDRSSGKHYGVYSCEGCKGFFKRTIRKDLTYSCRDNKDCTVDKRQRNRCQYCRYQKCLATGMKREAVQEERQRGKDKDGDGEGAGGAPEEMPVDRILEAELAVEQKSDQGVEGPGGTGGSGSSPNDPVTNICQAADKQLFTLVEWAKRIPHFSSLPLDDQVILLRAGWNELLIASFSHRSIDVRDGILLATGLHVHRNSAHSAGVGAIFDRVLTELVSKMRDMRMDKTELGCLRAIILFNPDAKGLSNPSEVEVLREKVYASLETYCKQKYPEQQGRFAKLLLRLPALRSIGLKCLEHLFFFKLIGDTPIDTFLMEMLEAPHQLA

Compound in this experiment: Nc1nc2c(ncn2[C@@H]2O[C@H](COP(=O)(O)OP(=O)(O)OP(=O)(O)O)[C@@H](O)[C@H]2O)c(=O)[nH]1 [guanosine triphosphate]
Briefly: NP40-soluble protein abundance relative to vehicle (solubility fold change) (ratio); higher = more soluble protein in presence of GTP. Put shortly:
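Jurkat crude lysate (Dounce-homogenised) was treated with eight concentrations from 0.1 to 10 mM for 10 min at room temperature, then 3 min at 37 °C. It was solubilised with 0.8% NP40 and benzonase (60 min, 4 °C) and ultracentrifuged, and the supernatant was TMT-labelled for LC-MS/MS. Intensities were vsn-normalised, and the value is the fold change against the NP40-processed vehicle per replicate, from three independent experiments.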

± gives the standard deviation of the averaged measurements. The list shows a part of the results.

Turning to NUP153 (UniProt P49790), the NP40-soluble protein abundance by setting is: (concentration: 0.1mM) 1.01 ± 0.02; (concentration: 0.5mM) 1.03 ± 0.028; (concentration: 1mM) 1.03 ± 0.012; (concentration: 2mM) 1.04 ± 0.033; (concentration: 4mM) 1.05 ± 0.013; (concentration: 6mM) 1.09 ± 0.022. Besides, the NP40-soluble protein abundance (concentration: 8mM) stood at 1.14 ± 0.055 and the NP40-soluble protein abundance (concentration: 10mM) worked out at 1.17 ± 0.043.
For the target PSMC4 (UniProt P43686), the NP40-soluble protein abundance reads like this: (concentration: 0.1mM) 1.02 ± 0.022; (concentration: 0.5mM) 1.07 ± 0.077; (concentration: 1mM) 1.05 ± 0.1; (concentration: 2mM) 1.12 ± 0.15; (concentration: 4mM) 1.1 ± 0.15; (concentration: 6mM) 1.13 ± 0.19. For the same target, the NP40-soluble protein abundance (concentration: 8mM) was 1.1 ± 0.16 and the NP40-soluble protein abundance (concentration: 10mM) stood at 1.06 ± 0.16.
Regarding PPP2R1A (UniProt P30153), the NP40-soluble protein abundance worked out at 0.985 ± 0.031 (concentration: 0.1mM); 0.9458 ± 0.005 (concentration: 0.5mM); 0.938 ± 0.019 (concentration: 1mM); 0.899 ± 0.011 (concentration: 2mM); 0.906 ± 0.01 (concentration: 4mM); 0.8968 ± 0.0065 (concentration: 6mM). Further, the NP40-soluble protein abundance came out at 0.903 ± 0.032 (concentration: 8mM) and 0.8781 ± 0.0072 (concentration: 10mM).
Consider IGHMBP2 (UniProt P38935), for which the NP40-soluble protein abundance by setting is: (concentration: 0.1mM) 1.07 ± 0.072; (concentration: 0.5mM) 1.09 ± 0.1; (concentration: 1mM) 1.14 ± 0.099; (concentration: 2mM) 1.26 ± 0.17; (concentration: 4mM) 1.44 ± 0.26; (concentration: 6mM) 1.6 ± 0.27. The NP40-soluble protein abundance by setting is: (concentration: 8mM) 1.7 ± 0.43; (concentration: 10mM) 1.92 ± 0.48.
With UniProt P35268 and related entries, the NP40-soluble protein abundance was 0.964 ± 0.022 (concentration: 0.1mM); 0.99 ± 0.046 (concentration: 0.5mM); 0.959 ± 0.037 (concentration: 1mM); 1 ± 0.035 (concentration: 2mM); 0.99 ± 0.088 (concentration: 4mM); 1.02 ± 0.075 (concentration: 6mM). In addition, the NP40-soluble protein abundance by setting is: (concentration: 8mM) 0.954 ± 0.0096; (concentration: 10mM) 1.08 ± 0.051.
For PSMB2 (UniProt P49721), the NP40-soluble protein abundance (concentration: 0.1mM) is 1.04 ± 0.075; the NP40-soluble protein abundance (concentration: 0.5mM) was 1.07 ± 0.098; the NP40-soluble protein abundance (concentration: 1mM) came to 1.05 ± 0.1; the NP40-soluble protein abundance (concentration: 2mM) was 1.06 ± 0.15; the NP40-soluble protein abundance (concentration: 4mM) is 1.07 ± 0.14; the NP40-soluble protein abundance (concentration: 6mM) is 1.08 ± 0.16. The NP40-soluble protein abundance came out at 1.06 ± 0.13 (concentration: 8mM) and 0.981 ± 0.15 (concentration: 10mM).
In the case of UniProt P46459 and related entries, the NP40-soluble protein abundance turned out to be 1.05 ± 0.05 (concentration: 0.1mM); 1.06 ± 0.061 (concentration: 0.5mM); 1.04 ± 0.076 (concentration: 1mM); 1.03 ± 0.069 (concentration: 2mM); 1.02 ± 0.075 (concentration: 4mM); 1.02 ± 0.083 (concentration: 6mM). For the same target, the NP40-soluble protein abundance (concentration: 8mM) stood at 0.998 ± 0.064 and the NP40-soluble protein abundance (concentration: 10mM) came out at 0.956 ± 0.037.
For UniProt P43487 and related entries, the NP40-soluble protein abundance was 0.858 ± 0.039 (concentration: 0.1mM); 0.885 ± 0.043 (concentration: 0.5mM); 0.952 ± 0.076 (concentration: 1mM); 0.932 ± 0.02 (concentration: 2mM); 0.871 ± 0.095 (concentration: 4mM); 0.979 ± 0.081 (concentration: 6mM). For the same target, the NP40-soluble protein abundance (concentration: 8mM) was found to be 0.938 ± 0.061 and the NP40-soluble protein abundance (concentration: 10mM) worked out at 1.07 ± 0.016.
Turning to PEBP1 (UniProt P30086), the NP40-soluble protein abundance stood at 0.879 ± 0.07 (concentration: 0.1mM); 0.901 ± 0.094 (concentration: 0.5mM); 0.889 ± 0.099 (concentration: 1mM); 0.832 ± 0.1 (concentration: 2mM); 0.829 ± 0.13 (concentration: 4mM); 0.848 ± 0.1 (concentration: 6mM). In addition, the NP40-soluble protein abundance came out at 0.825 ± 0.1 (concentration: 8mM) and 0.827 ± 0.13 (concentration: 10mM).
As for SRP9 (UniProt P49458), the NP40-soluble protein abundance was found to be 0.943 ± 0.11 (concentration: 0.1mM); 0.889 ± 0.065 (concentration: 0.5mM); 1.03 ± 0.14 (concentration: 1mM); 1.03 ± 0.096 (concentration: 2mM); 1.03 ± 0.095 (concentration: 4mM); 1.05 ± 0.093 (concentration: 6mM). In addition, the NP40-soluble protein abundance turned out to be 1.01 ± 0.17 (concentration: 8mM) and 1.11 ± 0.17 (concentration: 10mM).
For UniProt P28702 and related entries, the NP40-soluble protein abundance by setting is: (concentration: 0.1mM) 1.02 ± 0.047; (concentration: 0.5mM) 0.993 ± 0.045; (concentration: 1mM) 0.992 ± 0.043; (concentration: 2mM) 0.978 ± 0.013; (concentration: 4mM) 0.987 ± 0.067; (concentration: 6mM) 0.964 ± 0.063. The NP40-soluble protein abundance (concentration: 8mM) was determined as 0.971 ± 0.019 and the NP40-soluble protein abundance (concentration: 10mM) stood at 0.955 ± 0.049.
